In patent US20250376528A1:
No constants are given. Whether binding was seen depends on the method and setting. Some entries that bind do so weakly or less than the wild type.

By UniProt entry, the sequences of proteins in these tests, tags left out. Residues count along the entry.
UniProt Q08334, residues 20-220: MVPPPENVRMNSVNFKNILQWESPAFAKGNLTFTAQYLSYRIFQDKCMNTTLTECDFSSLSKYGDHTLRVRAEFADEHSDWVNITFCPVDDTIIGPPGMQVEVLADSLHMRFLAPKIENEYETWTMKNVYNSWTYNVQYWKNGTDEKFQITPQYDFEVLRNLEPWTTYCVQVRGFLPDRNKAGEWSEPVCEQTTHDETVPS

B1: anti-hIL-10Rβecd VHH SEQ ID NO 53 (VHH)
VHH: QVQLQESGGGSVQAGGSLRLSCAASRYTYNSYCMGWFRQAPGKEREGVATIDSDGMTRYADSVKGRFTISKDNAKNTLYLQMNSLKPEDTAMYYCAADADCTIAAMTTNPLGQGTQVTVSS
B2: anti-hIL-10Rβecd VHH SEQ ID NO 54 (VHH)
VHH: QVQLQESGGGSVQAGGSLRLSCTVSRYTASVNYMGWFRQAPGKEREGVATIFTGAGTTYYANSVKGRFTISRDNAKNTAYLQMNSLKPEDTAIYYCAVDFRGGLLYRPAYEYTYRGQGTQVTVSS
B3: anti-hIL-10Rβecd VHH SEQ ID NO 55 (VHH)
VHH: QVQLQESGGGSVEAGGSLRLSCAASGYTHSSYCMGWFRQAPGKEREGVAAIDVDGSTTYADSVKGRFTISKDNAKNTLYLQMNSLKPEDTGMYYCAAEFADCSSNYFLPPGAVRYWGQGTQVTVSS
B4: anti-hIL-10Rβecd VHH SEQ ID NO 51 (VHH)
VHH: QVQLQESGGGSVQAGGSLRLSCAASGYTYSSGCMGWFRQAPGKEREAVAAINSDGSTSYADSVKGRFTISKDNAKNTLYLQMNSLKPEDTAMYYCAAEPYCSGGYPRWSVAEFGYWGQGTQVTVSS

The binders below were run against extracellular domain of human IL10Rβ (amino acids 20-220, UniProtKB Q08334) (human) (UniProt Q08334) (assay: phage display biopanning on the antigen, positive colonies by PE-ELISA).

binding, binds:
B1
B2
B3
B4
